No constants are given. Whether binding was seen depends on the method and setting. In cells and extracts the contact can be indirect. A result given as binding can be weak or reduced; the word gives no strength. Sequences can lack the tags named with a protein.

The test concerns the target Myc-PDZD7 (mouse PDZD7 short isoform, amino acids 1-557) (mouse). Nature of the test: co-IP; HEK293T cells transfected with Myc- and EGFP-tagged proteins; lysis in 150 mM NaCl, 50 mM Tris pH 7.5, 1% Triton X-100; immobilized anti-Myc antibody, 4°C, 2 hours; blot with anti-Myc or anti-GFP.

B1: EGFP-CADM1 (mouse, full-length) (protein, UniProt Q8R5M8 48-456)
chain: QNLFTKDVTVIEGEVATISCQVNKSDDSVIQLLNPNRQTIYFRDFRPLKDSRFQLLNFSSSELKVSLTNVSISDEGRYFCQLYTDPPQESYTTITVLVPPRNLMIDIQKDTAVEGEEIEVNCTAMASKPATTIRWFKGNKELKGKSEVEEWSDMYTVTSQLMLKVHKEDDGVPVICQVEHPAVTGNLQTQRYLEVQYKPQVHIQMTYPLQGLTREGDAFELTCEAIGKPQPVMVTWVRVDDEMPQHAVLSGPNLFINNLNKTDNGTYRCEASNIVGKAHSDYMLYVYDPPTTIPPPTTTTTTTTTTTTTILTIITDTTATTEPAVHDSRAGEEGTIGAVDHAVIGGVVAVVVFAMLCLLIILGRYFARHKGTYFTHEAKGADDAADADTAIINAEGGQNNSEEKKEYFI
As to B1, the binding result was “binds”.
